Laboratory results as given in article PMC11066047.
Results are given in words; binding and its absence hold for the method and conditions named. In cells and extracts the contact can be indirect. Some entries that bind do so weakly or less than the wild type. For some assays here: Sequences can lack the tags named with a protein.

By UniProt entry, the sequences of proteins in these tests, tags left out.
UniProt P35169: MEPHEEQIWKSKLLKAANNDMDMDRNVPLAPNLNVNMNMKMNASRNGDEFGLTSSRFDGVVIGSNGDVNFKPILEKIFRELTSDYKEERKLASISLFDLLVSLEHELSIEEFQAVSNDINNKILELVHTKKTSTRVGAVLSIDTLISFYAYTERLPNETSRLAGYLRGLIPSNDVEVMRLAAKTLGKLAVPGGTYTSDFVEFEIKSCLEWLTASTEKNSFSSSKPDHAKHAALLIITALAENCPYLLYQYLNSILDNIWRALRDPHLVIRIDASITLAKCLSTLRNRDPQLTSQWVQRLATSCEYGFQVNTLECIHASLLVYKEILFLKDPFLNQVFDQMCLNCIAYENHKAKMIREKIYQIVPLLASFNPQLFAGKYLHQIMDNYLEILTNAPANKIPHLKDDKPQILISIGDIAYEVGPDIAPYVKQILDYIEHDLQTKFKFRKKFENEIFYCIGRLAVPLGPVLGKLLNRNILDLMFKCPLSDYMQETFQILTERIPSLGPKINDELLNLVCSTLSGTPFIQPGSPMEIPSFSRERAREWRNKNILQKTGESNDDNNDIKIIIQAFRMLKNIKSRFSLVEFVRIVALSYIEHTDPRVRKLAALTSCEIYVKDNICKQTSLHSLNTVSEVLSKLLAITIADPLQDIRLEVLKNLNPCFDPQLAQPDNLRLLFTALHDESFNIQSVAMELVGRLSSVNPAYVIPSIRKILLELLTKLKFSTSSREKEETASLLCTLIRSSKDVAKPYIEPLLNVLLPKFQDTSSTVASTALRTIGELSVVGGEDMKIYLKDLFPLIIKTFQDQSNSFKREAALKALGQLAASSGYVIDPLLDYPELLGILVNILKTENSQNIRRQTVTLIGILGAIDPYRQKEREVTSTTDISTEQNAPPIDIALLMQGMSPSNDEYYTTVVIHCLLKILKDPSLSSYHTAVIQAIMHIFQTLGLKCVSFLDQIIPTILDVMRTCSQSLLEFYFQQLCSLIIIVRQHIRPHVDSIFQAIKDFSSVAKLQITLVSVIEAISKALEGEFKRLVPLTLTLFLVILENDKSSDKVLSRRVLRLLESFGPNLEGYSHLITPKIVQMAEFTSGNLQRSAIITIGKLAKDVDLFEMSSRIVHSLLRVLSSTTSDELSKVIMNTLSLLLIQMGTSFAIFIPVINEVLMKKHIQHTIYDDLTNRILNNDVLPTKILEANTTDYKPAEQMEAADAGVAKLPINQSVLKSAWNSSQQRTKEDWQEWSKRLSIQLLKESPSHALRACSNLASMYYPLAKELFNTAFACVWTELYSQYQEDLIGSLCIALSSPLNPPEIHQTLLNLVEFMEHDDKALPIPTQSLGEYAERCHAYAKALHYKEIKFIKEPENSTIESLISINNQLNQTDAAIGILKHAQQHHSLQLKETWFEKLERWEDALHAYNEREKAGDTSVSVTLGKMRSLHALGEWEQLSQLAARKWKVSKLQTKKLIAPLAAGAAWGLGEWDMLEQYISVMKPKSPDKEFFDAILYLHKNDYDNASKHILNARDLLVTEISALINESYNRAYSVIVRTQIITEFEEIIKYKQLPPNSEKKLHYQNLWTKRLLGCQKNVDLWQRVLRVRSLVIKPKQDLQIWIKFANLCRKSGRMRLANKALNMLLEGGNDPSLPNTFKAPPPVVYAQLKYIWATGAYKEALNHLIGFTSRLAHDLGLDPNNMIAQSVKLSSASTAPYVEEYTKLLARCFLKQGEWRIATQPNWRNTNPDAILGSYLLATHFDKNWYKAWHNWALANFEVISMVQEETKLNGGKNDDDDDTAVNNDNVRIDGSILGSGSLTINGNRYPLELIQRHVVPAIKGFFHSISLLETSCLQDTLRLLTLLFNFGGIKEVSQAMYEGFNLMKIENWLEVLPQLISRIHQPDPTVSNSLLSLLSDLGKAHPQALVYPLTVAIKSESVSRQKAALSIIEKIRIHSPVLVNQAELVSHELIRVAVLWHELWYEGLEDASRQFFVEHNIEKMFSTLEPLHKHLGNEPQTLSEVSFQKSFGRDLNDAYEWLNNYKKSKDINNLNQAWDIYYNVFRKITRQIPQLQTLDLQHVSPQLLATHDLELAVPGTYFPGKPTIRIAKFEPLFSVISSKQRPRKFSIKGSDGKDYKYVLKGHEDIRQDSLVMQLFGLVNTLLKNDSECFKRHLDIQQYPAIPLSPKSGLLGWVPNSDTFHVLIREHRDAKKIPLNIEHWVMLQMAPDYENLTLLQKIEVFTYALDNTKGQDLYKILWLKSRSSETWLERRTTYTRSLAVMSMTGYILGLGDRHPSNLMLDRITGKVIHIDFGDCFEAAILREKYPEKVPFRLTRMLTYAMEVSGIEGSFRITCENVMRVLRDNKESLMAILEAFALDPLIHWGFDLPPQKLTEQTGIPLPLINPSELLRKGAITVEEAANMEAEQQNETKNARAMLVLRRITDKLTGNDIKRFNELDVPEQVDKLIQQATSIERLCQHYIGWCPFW
UniProt P38873: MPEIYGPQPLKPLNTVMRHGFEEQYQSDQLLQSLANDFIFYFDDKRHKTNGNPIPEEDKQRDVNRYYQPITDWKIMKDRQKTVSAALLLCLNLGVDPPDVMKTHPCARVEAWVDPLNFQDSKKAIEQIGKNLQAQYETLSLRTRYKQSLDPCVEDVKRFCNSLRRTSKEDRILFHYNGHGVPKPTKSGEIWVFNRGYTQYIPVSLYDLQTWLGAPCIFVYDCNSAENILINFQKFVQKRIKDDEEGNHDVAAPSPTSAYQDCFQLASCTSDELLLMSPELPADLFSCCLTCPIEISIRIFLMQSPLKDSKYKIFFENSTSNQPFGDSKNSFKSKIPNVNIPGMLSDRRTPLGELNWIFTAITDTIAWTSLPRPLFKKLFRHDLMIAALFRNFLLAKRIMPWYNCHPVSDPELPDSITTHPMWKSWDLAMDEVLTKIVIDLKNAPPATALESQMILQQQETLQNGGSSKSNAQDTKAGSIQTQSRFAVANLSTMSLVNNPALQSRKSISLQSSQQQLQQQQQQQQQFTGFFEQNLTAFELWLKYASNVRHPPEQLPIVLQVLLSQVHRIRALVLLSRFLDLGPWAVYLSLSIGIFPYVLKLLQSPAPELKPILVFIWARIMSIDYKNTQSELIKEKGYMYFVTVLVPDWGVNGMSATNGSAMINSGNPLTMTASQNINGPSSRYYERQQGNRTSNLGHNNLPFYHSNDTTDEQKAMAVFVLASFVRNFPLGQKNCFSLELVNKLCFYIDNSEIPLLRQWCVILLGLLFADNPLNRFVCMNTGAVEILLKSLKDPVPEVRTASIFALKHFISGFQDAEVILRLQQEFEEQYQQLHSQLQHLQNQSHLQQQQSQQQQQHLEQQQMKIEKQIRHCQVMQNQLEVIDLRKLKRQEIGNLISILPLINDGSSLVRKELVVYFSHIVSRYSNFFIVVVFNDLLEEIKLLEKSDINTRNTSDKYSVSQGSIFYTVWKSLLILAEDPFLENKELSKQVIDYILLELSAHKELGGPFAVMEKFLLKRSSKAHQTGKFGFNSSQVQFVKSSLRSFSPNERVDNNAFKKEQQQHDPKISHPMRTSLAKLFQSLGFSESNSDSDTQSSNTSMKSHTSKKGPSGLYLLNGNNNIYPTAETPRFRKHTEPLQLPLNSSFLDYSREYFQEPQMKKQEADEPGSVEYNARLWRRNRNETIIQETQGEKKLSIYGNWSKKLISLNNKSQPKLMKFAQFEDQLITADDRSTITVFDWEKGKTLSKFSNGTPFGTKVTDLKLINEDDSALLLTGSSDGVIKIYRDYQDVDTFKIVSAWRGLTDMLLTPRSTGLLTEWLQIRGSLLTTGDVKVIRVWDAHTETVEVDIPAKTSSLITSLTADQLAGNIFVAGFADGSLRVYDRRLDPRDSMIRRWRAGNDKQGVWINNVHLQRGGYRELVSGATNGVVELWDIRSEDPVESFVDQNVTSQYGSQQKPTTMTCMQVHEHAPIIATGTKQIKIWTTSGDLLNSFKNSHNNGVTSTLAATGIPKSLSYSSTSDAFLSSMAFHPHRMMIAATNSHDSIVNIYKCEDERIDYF
UniProt Q04338: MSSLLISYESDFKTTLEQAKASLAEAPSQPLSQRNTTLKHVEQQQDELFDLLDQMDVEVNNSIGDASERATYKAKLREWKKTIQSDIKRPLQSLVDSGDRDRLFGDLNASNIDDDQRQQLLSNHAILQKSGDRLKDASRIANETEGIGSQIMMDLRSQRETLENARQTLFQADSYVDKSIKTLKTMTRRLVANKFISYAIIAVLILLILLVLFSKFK

T1: Lst8 (Saccharomyces cerevisiae (endogenous in isolated vacuoles)) (UniProt P41318)
T1 sequence: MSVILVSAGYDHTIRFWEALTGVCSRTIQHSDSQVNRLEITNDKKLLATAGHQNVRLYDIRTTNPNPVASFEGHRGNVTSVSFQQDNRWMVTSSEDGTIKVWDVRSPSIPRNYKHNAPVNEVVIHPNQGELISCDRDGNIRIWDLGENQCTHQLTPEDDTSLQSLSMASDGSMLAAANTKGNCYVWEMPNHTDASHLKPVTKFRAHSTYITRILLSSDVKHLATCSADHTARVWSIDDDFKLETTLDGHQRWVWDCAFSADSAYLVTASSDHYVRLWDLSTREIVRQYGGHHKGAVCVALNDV

T2: Vam3 (Saccharomyces cerevisiae (endogenous in isolated vacuoles)) (UniProt Q12241)
T2 sequence: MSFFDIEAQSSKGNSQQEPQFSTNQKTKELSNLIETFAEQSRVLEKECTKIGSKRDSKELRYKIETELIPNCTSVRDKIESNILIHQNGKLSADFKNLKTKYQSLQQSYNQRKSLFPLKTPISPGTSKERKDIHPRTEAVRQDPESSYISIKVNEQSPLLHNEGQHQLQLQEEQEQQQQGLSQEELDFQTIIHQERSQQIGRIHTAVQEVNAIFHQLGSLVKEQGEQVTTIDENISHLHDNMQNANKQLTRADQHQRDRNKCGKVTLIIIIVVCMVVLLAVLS

B1: Pib2 (protein, UniProt P53191 1-635)
chain: MTALHSVSKTPAIKEEEEDGDERDGRGVPLGPRNHDYRGRKGDEESGADTVTSPITFEKKKIAPRASTHSEQSILSSISLKSMVNQHRQQQLQQESSTGAGTGFVDRKQQIQSPAMVSILRKNSAEENVRSSHSSKLGEGQIDGRKASASKEIGKTLPFTDDQRSNPELDPTNSVVDVSRGKNTKSKTVFNELEDDADDDDEVRQKNLTTQALRKLSSFKMNASSNLRLSKENKAKESSSSSTSSVSSSSTSKVENIVDKLTTTNSSSMSQLRFGNTNVIIDSVNHAAKPPHQQMLRKPSLEFLPQPASSTNLNFNSNKHKSNVRQISNPKKPLYIPAVLRKVSETNITNDDLLNATLSSYYKKASNLEHGFNPSKSQSASVQNANNLRIISSQSSVQSNTSSILESYKNKISSYLFPNSIPNSDRINLIPTISNRNSARVNPPTKDHWIPDSKRNSCRYCHKPFTLWERKHHCRHCGDIFCQDHLRHWLYLDSQANFIMINELNNGGINGGGTLCKICDDCLVEYENLSTTNHNANTNEDNINVEEGEDDDNDNRKKLRNYYKNRQMNALFRPKKGGSSQEHATVDRDTTTPIQVKSNDEEADNENTGGEQEEGNDVLGSVIGSVPANWNWSSF
B2: Vam7 (protein, UniProt P32912 1-316)
chain: MAANSVGKMSEKLRIKVDDVKINPKYVLYGVSTPNKRLYKRYSEFWKLKTRLERDVGSTIPYDFPEKPGVLDRRWQRRYDDPEMIDERRIGLERFLNELYNDRFDSRWRDTKIAQDFLQLSKPNVSQEKSQQHLETADEVGWDEMIRDIKLDLDKESDGTPSVRGALRARTKLHKLRERLEQDVQKKSLPSTEVTRRAALLRSLLKECDDIGTANIAQDRGRLLGVATSDNSSTTEVQGRTNNDLQQGQMQMVRDQEQELVALHRIIQAQRGLALEMNEELQTQNELLTALEDDVDNTGRRLQIANKKARHFNNSA

How the values were obtained:
Test in all cases: cross-linking; XL-MS on isolated intact yeast vacuoles; 1 mM Azide-A-DSBSO (lysine-lysine), 20 min at room temperature, 10 mM HEPES/KOH pH 7.4 buffers; 2% FDR at unique lysine-lysine connection level
[1] = molecular target: Tor1 (Saccharomyces cerevisiae (endogenous in isolated vacuoles)) (UniProt P35169)
[2] = molecular target: Kog1 (Saccharomyces cerevisiae (endogenous in isolated vacuoles)) (UniProt P38873)
[3] = molecular target: T1, Lst8 (Saccharomyces cerevisiae (endogenous in isolated vacuoles))
[4] = molecular target: T2, Vam3 (Saccharomyces cerevisiae (endogenous in isolated vacuoles))
[5] = molecular target: Vti1 (Saccharomyces cerevisiae (endogenous in isolated vacuoles)) (UniProt Q04338)

Binder	binding [1]	binding [2]	binding [3]	binding [4]	binding [5]
B1	binds	binds	binds	–	–
B2	–	–	–	binds	binds
